The values that follow come from patent publication US12295997B2, “Prostate neoantigens and their uses” (Janssen Biotech, Inc., priority 2020, dated 2025).

What all share (design): species or system human
For data set [1], the system named is FFPE tissue samples from prostate cancer. Nature of the data set: Expression profiling of prostate neoantigens in FFPE prostate cancer samples (Fluidigm Biomark HD). To be noted: for qPCR Relative Average Ct: FFPE prostate cancer tissue samples; for qPCR % Positive FFPE: about 90 FFPE prostate cancer tissue samples. (In general: Real-time PCR tracks product formation cycle by cycle.)

Data set [2] deals with Frozen prostate cancer tissues. Nature of the data set: Prevalence of neoantigens in frozen prostate cancer tissues (n = 11). To be noted: Table 22.
In data set [3] the test system is panel of normal tissues, PBMCs obtained from healthy subjects, cell lines. Nature of the data set: Expression profiling of prostate neoantigens in normal tissues, PBMCs and cell lines (Fluidigm Biomark HD).

“Also recorded” adds a separate entry of the source. For part of these data: The expression values are mRNA levels of the gene; the protein chain is shown to identify it.

Turning to “CEERGAAGSLISCE (listed as Homo sapiens) [FUS6, TMPRSS2->ERG gene fusion]”, in data set [1], the “qPCR Relative Average Ct” value came to 11 and the “qPCR % Positive FFPE” value turned out to be 19%.

Turning to “CGASACDVSLIAMDSA (listed as Homo sapiens) [FUS1, SLC45A3->ELK4 gene fusion]”, in data set [1], the “qPCR Relative Average Ct” value came to 9 and the “qPCR % Positive FFPE” value is on record as 72%.

For the molecule “DGHSYTSKVNCLLLQDGFHGCVSITGAAGRRNLSIFLFLMLCKLEFHAC (listed as Homo sapiens) [AS55, SPOCK1 alternative splicing]”, in data set [2], the “Frozen prostate cancer tissues* (n = 11)” value was 18.2. Also, in data set [1], the “qPCR Relative Average Ct” value is 8.2 and the “qPCR % Positive FFPE” value came out at 83.3%.

Turning to “DYWAQKEKGSSSFLRPSC (listed as Homo sapiens) [AS7, ACSM1 alternative splicing]”, the “Frozen prostate cancer tissues* (n = 11)” value in data set [2] is 27.3. Besides, in data set [1], the “qPCR Relative Average Ct” value is reported as 11.0 and the “qPCR % Positive FFPE” value is given as 57.8%.

Regarding “DYWAQKEKISIPRTHLC (listed as Homo sapiens) [AS6, ACSM1 alternative splicing]”, the “Frozen prostate cancer tissues* (n = 11)” value in data set [2] is 27.3. For the same molecule, in data set [1], the “qPCR Relative Average Ct” value turned out to be 10.0 and the “qPCR % Positive FFPE” value was found to be 33.3%.

With “EAFQRAAGEGGPGRGGARRGARVLQSPFCRAGAGEWLGHQSLR (listed as Homo sapiens) [AS41, RHPN1 alternative splicing]”, in data set [2], the “Frozen prostate cancer tissues* (n = 11)” value was 0.0. In data set [1], the “qPCR Relative Average Ct” value is given as 11.6 and the “qPCR % Positive FFPE” value turned out to be 45.6%.

Consider “FKKFDGPCGERGGGRTARALWARGDSVLTPALDPQTPVRAPSLTRAAAAV (listed as Homo sapiens) [AS47, AGRN alternative splicing]”, for which the “Frozen prostate cancer tissues* (n = 11)” value in data set [2] worked out at 0.0. Also, in data set [1], the “qPCR Relative Average Ct” value amounted to 12.3 and the “qPCR % Positive FFPE” value was 16.7%.

As to “FUSS (NSKMALNSEALSVVSE; listed as Homo sapiens)”, in data set [1], the “qPCR Relative Average Ct” value was 7 and the “qPCR % Positive FFPE” value came to 14%.

Take “GMECTLGQVGAPSPRREEDGWRGGHSRFKADVPAPQGPCWGGQPGSAPSSAPPEQSLLD (listed as Homo sapiens) [AS51, CPNE7 alternative splicing]”: the “Frozen prostate cancer tissues* (n = 11)” value in data set [2] is reported as 9.1. Moreover, in data set [1], the “qPCR Relative Average Ct” value is 10.5 and the “qPCR % Positive FFPE” value was 47.8%.

With “GNTTLQQLGEASQAPSGSLIPLRLPLLWEVRG (listed as Homo sapiens) [AS16, LRRC45 alternative splicing]”, in data set [2], the “Frozen prostate cancer tissues* (n = 11)” value is 45.5. Besides, in data set [1], the “qPCR Relative Average Ct” value turned out to be 10.8 and the “qPCR % Positive FFPE” value is 47.8%.

For “GVPGDSTRRAVRRMNTF (listed as Homo sapiens) [Neoantigen P16]”, the “qPCR Normal Tissue Expression” value in data set [3] was “Prostate”. Besides, in data set [1], the “qPCR Relative Average Ct” value stood at 9 and the “qPCR % Positive FFPE” value is 76%.

“HVVGYGHLDTSGSSSSSSWP (listed as Homo sapiens) [FUS15, D2HGDH->GAL3ST2 gene fusion]”: in data set [1], the “qPCR Relative Average Ct” value is 13 and the “qPCR % Positive FFPE” value is reported as 8%.

For “KIQNKNCPD (listed as Homo sapiens) [AS23, ZNF614 alternative splicing]”, the “qPCR Normal Tissue Expression” value in data set [3] is given as “Mammary”. For the same molecule, the “Frozen prostate cancer tissues* (n = 11)” value in data set [2] came out at 45.5. Besides, in data set [1], the “qPCR Relative Average Ct” value is on record as 13.0 and the “qPCR % Positive FFPE” value came to 22.0%.

“KMHFSLKEHPPPPCPP (listed as Homo sapiens) [FUS19, GTF2F1->PSPN gene fusion]”: in data set [1], the “qPCR Relative Average Ct” value is 13 and the “qPCR % Positive FFPE” value is recorded as 4%.

As for “KRSFAVTERII (listed as Homo sapiens) [AS13, GRIN3A alternative splicing]”, the “Frozen prostate cancer tissues* (n = 11)” value in data set [2] is on record as 27.3. Moreover, in data set [1], the “qPCR Relative Average Ct” value is 11.1 and the “qPCR % Positive FFPE” value was 21.1%.

Turning to “LVLGVLSGHSGSRL (listed as Homo sapiens) [AS8, CACNA1D alternative splicing]”, the “Frozen prostate cancer tissues* (n = 11)” value in data set [2] came to 0.0. Further, in data set [1], the “qPCR Relative Average Ct” value is recorded as 12.5 and the “qPCR % Positive FFPE” value came to 13.3%.

For the molecule “NSKMALNSLNSIDDAQLTRIAPPRSHCCFWEVNAP (listed as Homo sapiens) [Neoantigen P35]”, the “qPCR Normal Tissue Expression” value in data set [3] is reported as “None”. Further, in data set [1], the “qPCR Relative Average Ct” value is on record as 13 and the “qPCR % Positive FFPE” value turned out to be 5%.

Take “QWQHYHRSGEAAGTPLWRPTRN (listed as Homo sapiens) [AS19, NWD1 alternative splicing]”: in data set [1], the “qPCR Relative Average Ct” value was 6.3 and the “qPCR % Positive FFPE” value stood at 95.6%.

Turning to “RTALTHNQDFSIYRLCCKRGSLCHASQARSPAFPKPVRPLPAPITRITPQLGGQSDSSQPLLTTGRPQGWQDQALRHTQQASPASCATITIPIHSAALGDHSGDPGPAWDTCPPLPLTTLIPRAPPPYGDSTARSWPSRCGPLG [MS3]”, the “Frozen prostate cancer tissues* (n = 11)” value in data set [2] turned out to be 9.1.

“SLYHREKQLIAMDSAI (listed as Homo sapiens) [Neoantigen P22]”: in data set [3], the “qPCR Normal Tissue Expression” value is on record as “Prostate”. Further, in data set [1], the “qPCR Relative Average Ct” value was determined as 9 and the “qPCR % Positive FFPE” value stood at 70%.

On to “TEISCCTLSSEENEYLPRPEWQLQ (listed as Homo sapiens) [FUS3, MSMB->NCOA4 gene fusion]”, for which, in data set [1], the “qPCR Relative Average Ct” value is recorded as 11 and the “qPCR % Positive FFPE” value is listed as 43%.

Regarding “TEYNQKLQVNQFSESK (listed as Homo sapiens) [FUS2, ARHGEF38->ARHGEF38-IT1 gene fusion]”, the “qPCR Normal Tissue Expression” value in data set [3] is listed as “Mammary”. In data set [1], the “qPCR Relative Average Ct” value came out at 11 and the “qPCR % Positive FFPE” value was determined as 55%.

Turning to “TGGKSTCSAPGPQSLPSTPFSTYPQWVILITEL (listed as Homo sapiens) [AS57, KLK3 alternative splicing]”, in data set [2], the “Frozen prostate cancer tissues* (n = 11)” value amounted to 36.4. Moreover, in data set [1], the “qPCR Relative Average Ct” value came to 7.9 and the “qPCR % Positive FFPE” value is reported as 83.3%.

For “TMPAILKLQKNCLLSL (listed as Homo sapiens) [MS8]”, the “qPCR Normal Tissue Expression” value in data set [3] is “None”. The “Frozen prostate cancer tissues* (n = 11)” value in data set [2] came to 18.2.

Consider “VAMMVPDRQVHYDFGL (listed as Homo sapiens) [AS3, DNAH8 alternative splicing]”, for which, in data set [2], the “Frozen prostate cancer tissues* (n = 11)” value was found to be 27.3. Also, in data set [1], the “qPCR Relative Average Ct” value is recorded as 10.8 and the “qPCR % Positive FFPE” value is given as 26.7%.

For the molecule “VLRFLDLKVRYLHS (listed as Homo sapiens) [AS15, LRRC45 alternative splicing]”, in data set [3], the “qPCR Normal Tissue Expression” value was “Ovary,; also recorded: Mammary”. In data set [2], the “Frozen prostate cancer tissues* (n = 11)” value is 36.4. Also, in data set [1], the “qPCR Relative Average Ct” value worked out at 11.4 and the “qPCR % Positive FFPE” value is given as 68.9%.

On to “WKFEMSYTVGGPPPHVHARPRHWKTDR (listed as Homo sapiens) [AS18, NWD1 alternative splicing]”, for which, in data set [1], the “qPCR Relative Average Ct” value is 6.3 and the “qPCR % Positive FFPE” value came out at 95.6%.

In the case of “YEAGMTLGEKFRVGNCKHLKMTRP (listed as Homo sapiens) [Neoantigen P82]”, in data set [1], the “qPCR Relative Average Ct” value is recorded as 11 and the “qPCR % Positive FFPE” value was found to be 37.0%.

On to “YEAGMTLGGKILFFLFLLLPLSPFSLIF (listed as Homo sapiens) [Neoantigen P87]”, for which the “qPCR Normal Tissue Expression” value in data set [3] is “Ovary, Prostate”. In data set [2], the “Frozen prostate cancer tissues* (n = 11)” value is 0.0. Further, in data set [1], the “qPCR Relative Average Ct” value worked out at 8.3 and the “qPCR % Positive FFPE” value came out at 85.6%.

B1: LWFQSSELSPTGAPWPSRRPTWRGTTVSPRTATSSARTCCGTKWPSSQEAALGLGSGLLRFSCGTAAIR (peptide, listed as Homo sapiens)
chain: LWFQSSELSPTGAPWPSRRPTWRGTTVSPRTATSSARTCCGTKWPSSQEAALGLGSGLLRFSCGTAAIR
notes: NME4->DECR2 gene fusion
With B1, in data set [1], the “qPCR % Positive FFPE” value came to 0%.

B2: WGMELAASRRFSWDHHSAGGPPRVPSVRSGAAQVQPKDPLPLRTLAGCLARTAHLRPGAESLPQPQLHCT (peptide, listed as Homo sapiens)
chain: WGMELAASRRFSWDHHSAGGPPRVPSVRSGAAQVQPKDPLPLRTLAGCLARTAHLRPGAESLPQPQLHCT
notes: INCA1->CAMTA2 gene fusion
For the molecule B2, in data set [1], the “qPCR Relative Average Ct” value is 14 and the “qPCR % Positive FFPE” value was 11%.

B3: HYKLIQQPISLFSITDRLHKTFSQLPSVHLCSITFQWGHPPIFCSTNDICVTANFCISVTFLKPCFLLHEASASQ (peptide, listed as Homo sapiens)
chain: HYKLIQQPISLFSITDRLHKTFSQLPSVHLCSITFQWGHPPIFCSTNDICVTANFCISVTFLKPCFLLHEASASQ
Take B3: the “qPCR Normal Tissue Expression” value in data set [3] is reported as “None”. For the same molecule, the “Frozen prostate cancer tissues* (n = 11)” value in data set [2] worked out at 18.2.

B4: CHLFLQPQVGTPPPHTASARAPSGPPHPHESCPAGRRPARAAQTCARRQHGLPGCEEAGTARVPSLHLHLHQAALGAGRGRGWGEACAQVPPSRG (peptide, listed as Homo sapiens)
chain: CHLFLQPQVGTPPPHTASARAPSGPPHPHESCPAGRRPARAAQTCARRQHGLPGCEEAGTARVPSLHLHLHQAALGAGRGRGWGEACAQVPPSRG
notes: RECQL4 alternative splicing
Consider B4, for which the “Frozen prostate cancer tissues* (n = 11)” value in data set [2] was 0.0. Further, the “qPCR % Positive FFPE” value in data set [1] is reported as 0.0%.

B5: YAYKDFLWCFPFSLVFLQEIQICCHVSCLCCICCSTRICLGCLLELFLSRALRALHVLWNGFQLHCQ (peptide, listed as Homo sapiens)
chain: YAYKDFLWCFPFSLVFLQEIQICCHVSCLCCICCSTRICLGCLLELFLSRALRALHVLWNGFQLHCQ
For B5, the “qPCR Normal Tissue Expression” value in data set [3] is reported as “None”. For the same molecule, in data set [2], the “Frozen prostate cancer tissues* (n = 11)” value is recorded as 9.1.

B6: VPFRELKNQRTAQGAPGIHHAASPVAANLCDPARHAQHTRIPCGAGQVRAGRGPEAGGGVLQPQRPAPEKPGCPCRRGQPRLHTVKMWRA (peptide, listed as Homo sapiens)
chain: VPFRELKNQRTAQGAPGIHHAASPVAANLCDPARHAQHTRIPCGAGQVRAGRGPEAGGGVLQPQRPAPEKPGCPCRRGQPRLHTVKMWRA
notes: CPNE7 alternative splicing
As to B6, the “Frozen prostate cancer tissues* (n = 11)” value in data set [2] turned out to be 9.1. Further, in data set [1], the “qPCR Relative Average Ct” value came to 12.1 and the “qPCR % Positive FFPE” value was determined as 25.6%.
